Positions count from the first letter of the chain named. Results are given in words; binding and its absence hold for the method and conditions named. Some entries that bind do so weakly or less than the wild type.
B1: h#11D5-T4 (antibody, human IgG1, kappa, V domains shown)
VH: QVQLQQWGAGLLKPSETLSLTCTVSGYSITSNYWGWIRQPPGKGLEWIGHITNSGNTTYNPSLKSRVTISRDTSKNQFSLKLSSVTAADTAVYYCAKGAFDYWGQGTLVTVSS
VL: DIQMTQSPSSLSASVGDRVTITCRASQDIGNYLSWYQQKPGKAPKRLIYGAIKLAVGVPSRFSGSGSGTEFTLTISSLQPEDFATYYCLQYIQFPLTFGGGTKVEIKR
B2: h#11B7-T2 (antibody, human IgG1, kappa, V domains shown)
VH: QIQLQESGPGLVKPSQTLSLTCAVSGYSITSNYWGWIRQPPGKGLEWMGYITYSGSTSYNPSLKSRISISVDTSKNQFSLKLSSVTAADTAVYYCAITTFYYWGQGTLVTVSS
VL: DIQMTQSPSSLSASVGDRVTITCRASQDIGNYLRWFQQKPGKAPKLMISGATNLAAGVPSRFSGTGSGTDYTFTISSLQPEDFATYYCLQSKESPWTFGGGTKVEIKR
B3: h#11B7-T10 (antibody, human IgG1, kappa, V domains shown)
VH: B2 VH with I2V, Q16E, A23T, M48I, I67V, V71R
VL: B2 VL with F36Y, M47L, T65S, T69S, F73L, G100Q
B4: h#11B7-T3 (antibody, human IgG1, kappa, V domains shown)
VH: B2 VH with I2V, Q39K, K43D, S70T, V71R
VL: B2 VL with T65S, G66R, T69S, F73L
B5: h#11B7-T13 (antibody, human IgG1, kappa, V domains shown)
VH: B2 VH with I2V, Q16E, A23T, M48I, I67V, V71R
VL: B2 VL with F36Y, M47L, T65S, T69S, Y71F, F73L, G100Q
B6: h#11B7-T7 (antibody, human IgG1, kappa, V domains shown)
VH: B2 VH with I2V, Q16E, A23T, M48I, I67V, V71R
VL: B2 VL with F36Y, T65S, T69S, F73L, G100Q
B7: h#11B7-T25 (antibody, human IgG1, kappa, V domains shown)
VH: B2 VH with I2V, Q16E, A23T, M48I, I67V, S68T, V71R
VL: B2 VL with M47L, T65S, T69S, Y71F, F73L, G100Q
B8: h#11B7-T15 (antibody, human IgG1, kappa, V domains shown)
VH: B2 VH with I2V, Q16E, A23T, S68T, V71R
VL: B2 VL with M47L, T65S, T69S, F73L, G100Q
B9: h#11B7-T24 (antibody, human IgG1, kappa, V domains shown)
VH: B2 VH with I2V, Q16E, A23T, M48I, I67V, S68T, V71R
VL: B2 VL with F36Y, M47L, T65S, T69S, F73L, G100Q
B10: h#11B7-T18 (antibody, human IgG1, kappa, V domains shown)
VH: B2 VH with I2V, Q16E, A23T, S68T, V71R
VL: B2 VL with M47L, T65S, T69S, Y71F, F73L, G100Q
B11: h#11B7-T26 (antibody, human IgG1, kappa, V domains shown)
VH: B2 VH with I2V, Q16E, A23T, M48I, I67V, S68T, V71R
VL: B2 VL with F36Y, T65S, T69S, Y71F, F73L, G100Q
B12: h#11B7-T14 (antibody, human IgG1, kappa, V domains shown)
VH: B2 VH with I2V, Q16E, A23T, S68T, V71R
VL: B2 VL with F36Y, T65S, T69S, F73L, G100Q
B13: h#11B7-T19 (antibody, human IgG1, kappa, V domains shown)
VH: B2 VH with I2V, Q16E, A23T, S68T, V71R
VL: B2 VL with F36Y, T65S, T69S, Y71F, F73L, G100Q
B14: h#11B7-T21 (antibody, human IgG1, kappa, V domains shown)
VH: B2 VH with I2V, Q16E, A23T, M48I, I67V, S68T, V71R
VL: B2 VL with F36Y, T65S, T69S, F73L, G100Q
B15: h#11B7-T23 (antibody, human IgG1, kappa, V domains shown)
VH: B2 VH with I2V, Q16E, A23T, M48I, I67V, S68T, V71R
VL: B2 VL with T65S, T69S, Y71F, F73L, G100Q
B16: h#11B7-T1 (antibody, human IgG1, kappa, V domains shown)
VH: B2 VH with M48I, I67V, S68T
VL: B2 VL with F36Y, M47L, Y71F
B17: h#11B7-T20 (antibody, human IgG1, kappa, V domains shown)
VH: B2 VH with I2V, Q16E, A23T, S68T, V71R
VL: B2 VL with F36Y, M47L, T65S, T69S, Y71F, F73L, G100Q
B18: h#11B7-T11 (antibody, human IgG1, kappa, V domains shown)
VH: B2 VH with I2V, Q16E, A23T, M48I, I67V, V71R
VL: B2 VL with M47L, T65S, T69S, Y71F, F73L, G100Q
B19: h#11B7-T22 (antibody, human IgG1, kappa, V domains shown)
VH: B2 VH with I2V, Q16E, A23T, M48I, I67V, S68T, V71R
VL: B2 VL with M47L, T65S, T69S, F73L, G100Q
B20: h#11B7-T8 (antibody, human IgG1, kappa, V domains shown)
VH: B2 VH with I2V, Q16E, A23T, M48I, I67V, V71R
VL: B2 VL with M47L, T65S, T69S, F73L, G100Q
B21: h#11B7-T12 (antibody, human IgG1, kappa, V domains shown)
VH: B2 VH with I2V, Q16E, A23T, M48I, I67V, V71R
VL: B2 VL with F36Y, T65S, T69S, Y71F, F73L, G100Q
B22: h#11B7-T16 (antibody, human IgG1, kappa, V domains shown)
VH: B2 VH with I2V, Q16E, A23T, S68T, V71R
VL: B2 VL with T65S, T69S, Y71F, F73L, G100Q
B23: h#11B7-T9 (antibody, human IgG1, kappa, V domains shown)
VH: B2 VH with I2V, Q16E, A23T, M48I, I67V, V71R
VL: B2 VL with T65S, T69S, Y71F, F73L, G100Q
B24: h#11B7-T17 (antibody, human IgG1, kappa, V domains shown)
VH: B2 VH with I2V, Q16E, A23T, S68T, V71R
VL: B2 VL with F36Y, M47L, T65S, T69S, F73L, G100Q
B25: chimeric anti-AXL antibody ch11B7-IgG1 (antibody, V domains shown)
VH: EVQLQESGPGLVKPSQSLSLTCSVTGYSITSNYWGWIRKFPGDKMEWMGYITYSGSTSYNPSLKSRISITRDTSKNQFFLQLNSVTSEDTATYYCAITTFYYWGQGVMVTVSS
VL: DIQMTQAPSSLPASLGDRVTITCRASQDIGNYLRWFQQKPGKSPRLMISGATNLAAGVPSRFSGSRSGSDYSLTISSLESEDMADYYCLQSKESPWTFGGGTKLELKR
notes: Rat 11B7 variable domains on human IgG1 / human kappa; also called chm11B7; chimeric anti-AXL mAb #11B7
B26: chimeric anti-AXL antibody ch11D5-IgG1 (antibody, V domains shown)
VH: EVQLQESGPGLVKPSQSLSLTCSVTGYSITSNYWGWIRKFPGNKMEWIGHITNSGNTTYNPSLKSRISISRDTSRNQFFLQLNSVTTEDTATYYCAKGAFDYWGQGVMVTVSS
VL: DIQMTQSPSSMSTSLGDRVTITCRASQDIGNYLSWFQQKVGKSPRRMIYGAIKLAVGVPSRFSGSRSGSDYSLTISSLESEDMAIYYCLQYIQFPLTFGSGTKLELKR
notes: also called chm11D5; human chimeric antibody (of #11D5)

Chains of the proteins cited; added tags and fusions are not shown. Lines headed by an entry give the natural chain unless they say otherwise; changes in a name come on top.
UniProt P30530: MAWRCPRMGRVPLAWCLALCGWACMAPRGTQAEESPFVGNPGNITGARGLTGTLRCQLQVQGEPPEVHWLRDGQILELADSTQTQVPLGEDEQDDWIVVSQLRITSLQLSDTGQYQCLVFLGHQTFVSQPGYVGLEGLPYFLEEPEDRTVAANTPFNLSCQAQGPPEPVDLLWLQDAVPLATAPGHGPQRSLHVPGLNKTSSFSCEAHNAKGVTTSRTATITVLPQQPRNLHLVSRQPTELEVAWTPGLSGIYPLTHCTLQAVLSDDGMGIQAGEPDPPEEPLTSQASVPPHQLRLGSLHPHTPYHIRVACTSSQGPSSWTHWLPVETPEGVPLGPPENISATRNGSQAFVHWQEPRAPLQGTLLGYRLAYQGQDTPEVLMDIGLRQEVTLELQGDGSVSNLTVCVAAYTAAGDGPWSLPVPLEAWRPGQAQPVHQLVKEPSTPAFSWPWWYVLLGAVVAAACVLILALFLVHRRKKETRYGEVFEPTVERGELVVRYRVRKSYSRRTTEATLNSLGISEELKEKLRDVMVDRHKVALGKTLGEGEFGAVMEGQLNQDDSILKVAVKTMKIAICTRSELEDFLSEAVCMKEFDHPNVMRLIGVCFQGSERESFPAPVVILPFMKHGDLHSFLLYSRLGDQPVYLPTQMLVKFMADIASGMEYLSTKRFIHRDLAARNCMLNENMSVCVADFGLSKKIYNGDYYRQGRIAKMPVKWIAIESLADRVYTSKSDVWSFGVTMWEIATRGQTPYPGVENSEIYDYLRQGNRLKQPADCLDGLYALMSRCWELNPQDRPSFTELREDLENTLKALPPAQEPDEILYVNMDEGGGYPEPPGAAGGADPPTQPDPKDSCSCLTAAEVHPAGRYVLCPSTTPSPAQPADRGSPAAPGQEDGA

target: Human AXL-Fc (R&D Systems, #154-AL) (human) (UniProt P30530); test: ELISA, human AXL-Fc coated plate, 1 µg/ml to 0.00256 ng/ml antibody

binding	Binder
binds	B1
binds	B2
binds	B3
binds	B4
binds	B5
binds	B6
binds	B7
binds	B8
binds	B9
binds	B10
binds	B11
binds	B12
binds	B13
binds	B14
binds	B15
binds	B16
binds	B17
binds	B18
binds	B19
binds	B20
binds	B21
binds	B22
binds	B23
binds	B24

target: Human AXL-Fc (R&D Systems, #154-AL) (human) (UniProt P30530); test: ELISA, human AXL-Fc coated plate; reference antibody

binding	Binder
binds	B25
binds	B26

From patent EP2270053A1 (U3 Pharma GmbH, dated 2011)
